Assay results reported in the supplement of paper PMC8728848.
The list shows a part of the results.

How the values were obtained:
Test in all cases: glycan array binding signal (z-score within array); higher = stronger binding
Details in all cases: glycan notation: IUPAC condensed, linker removed
[1] = molecular target: Neu5Ac(a2-6)Gal(b1-4)GlcNAc
Procedure, shortened: (§1)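 Glycan array data came from 3228 arrays in the Consortium for Functional Glycomics database, and only arrays with an available protein sequence were kept. Glycan names were put into IUPAC-condensed notation, and columns mapping to the same glycan were averaged. The binding signal is a within-array Z-score, averaged across arrays of one protein sequence run at different concentrations or buffers and across linkers. A negative Z-score can be read as non-binding.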

[2] = molecular target: Neu5Ac(a2-6)Gal(b1-4)GlcNAc(b1-2)Man(a1-3)[Gal(b1-4)GlcNAc(b1-2)Man(a1-6)]Man(b1-4)GlcNAc(b1-4)GlcNAc
Procedure, shortened: as §1

[3] = molecular target: Neu5Ac(a2-6)Gal(b1-4)GlcNAc(b1-2)Man(a1-3)[GlcNAc(b1-2)Man(a1-6)]Man(b1-4)GlcNAc(b1-4)GlcNAc
Procedure, shortened: as §1

[4] = molecular target: Neu5Ac(a2-6)Gal(b1-4)GlcNAc(b1-2)Man(a1-3)[GlcNAc(b1-2)Man(b1-4)GlcNAc(b1-2)Man(a1-6)]Man(b1-4)GlcNAc(b1-4)GlcNAc
Procedure, shortened: as §1

[5] = molecular target: Neu5Ac(a2-6)Gal(b1-4)GlcNAc(b1-2)Man(a1-3)[Neu5Ac(a2-6)Gal(b1-4)GlcNAc(b1-2)Man(a1-6)]Man(b1-4)GlcNAc(b1-4)GlcNAc
Procedure, shortened: as §1

[6] = molecular target: Neu5Ac(a2-6)Gal(b1-4)GlcNAc(b1-2)Man(a1-6)[Gal(b1-4)GlcNAc(b1-2)Man(a1-3)]Man(b1-4)GlcNAc(b1-4)GlcNAc
Procedure, shortened: as §1

[7] = molecular target: Neu5Ac(a2-6)Gal(b1-4)GlcNAc(b1-2)Man(a1-6)[GlcNAc(b1-2)Man(a1-3)]Man(b1-4)GlcNAc(b1-4)GlcNAc
Procedure, shortened: as §1

[8] = molecular target: Neu5Ac(a2-6)Gal(b1-4)GlcNAc(b1-3)Gal(b1-4)GlcNAc
Procedure, shortened: as §1

[9] = molecular target: Neu5Ac(a2-6)Gal(b1-4)GlcNAc(b1-3)Gal(b1-4)[Fuc(a1-3)]GlcNAc(b1-3)Gal(b1-4)[Fuc(a1-3)]GlcNAc
Procedure, shortened: as §1

[10] = molecular target: Neu5Ac(a2-6)Gal(b1-4)GlcNAc6S
Procedure, shortened: as §1

Neu5Ac(a2-6)GalNAc = molecular target: Neu5Ac(a2-6)GalNAc
Procedure, shortened: as §1

[11] = molecular target: Neu5Ac(a2-6)GalNAc(b1-4)GlcNAc
Procedure, shortened: as §1

Neu5Ac(a2-8)Neu5Ac = molecular target: Neu5Ac(a2-8)Neu5Ac
Procedure, shortened: as §1

[12] = molecular target: Neu5Ac(a2-8)Neu5Ac(a2-3)Gal(b1-4)Glc
Procedure, shortened: as §1

[13] = molecular target: Neu5Ac(a2-8)Neu5Ac(a2-3)[GalNAc(b1-4)]Gal(b1-4)Glc
Procedure, shortened: as §1

[14] = molecular target: Neu5Ac(a2-8)Neu5Ac(a2-8)Neu5Ac
Procedure, shortened: as §1

[15] = molecular target: Neu5Ac(a2-8)Neu5Ac(a2-8)Neu5Ac(a2-3)Gal(b1-4)Glc
Procedure, shortened: as §1

[16] = molecular target: Neu5Ac(a2-8)Neu5Ac(a2-8)Neu5Ac(a2-3)[GalNAc(b1-4)]Gal(b1-4)Glc
Procedure, shortened: as §1

[17] = molecular target: Neu5Ac(a2-8)Neu5Ac(a2-8)Neu5Ac(a2-8)Neu5Ac(a2-3)[GalNAc(b1-4)]Gal(b1-4)Glc
Procedure, shortened: as §1

[18] = molecular target: Neu5Ac(b2-6)Gal(b1-4)GlcNAc
Procedure, shortened: as §1

Neu5Ac(b2-6)GalNAc = molecular target: Neu5Ac(b2-6)GalNAc
Procedure, shortened: as §1

[19] = molecular target: Neu5Ac9Ac(a2-6)Gal(b1-4)GlcNAc
Procedure, shortened: as §1

[20] = molecular target: Neu5Gc(a2-3)Gal(b1-3)GlcNAc
Procedure, shortened: as §1

[21] = molecular target: Neu5Gc(a2-3)Gal(b1-3)[Fuc(a1-4)]GlcNAc
Procedure, shortened: as §1

Neu5Gc(a2-3)Gal(b1-4)Glc = molecular target: Neu5Gc(a2-3)Gal(b1-4)Glc
Procedure, shortened: as §1

[22] = molecular target: Neu5Gc(a2-3)Gal(b1-4)GlcNAc
Procedure, shortened: as §1

[23] = molecular target: Neu5Gc(a2-3)Gal(b1-4)[Fuc(a1-3)]GlcNAc
Procedure, shortened: as §1

[24] = molecular target: Neu5Gc(a2-6)Gal(b1-4)GlcNAc
Procedure, shortened: as §1

Neu5Gc(a2-6)GalNAc = molecular target: Neu5Gc(a2-6)GalNAc
Procedure, shortened: as §1

[25] = molecular target: Neu5Gc(b2-6)Gal(b1-4)GlcNAc
Procedure, shortened: as §1

B1: TbCVNHOa (Tuber borchii), Q5MK11 (protein)
chain: MSYADSSRNAVLTNGGRTLRAECRNADGNWVTSELDLDTCIGNPNGFLGWGMQNFSHSSEDIKLEEGGRKLTCRPKTVDGGFRERQGIDLNRIQNVNGRLVFQ
[1]
  glycan array binding signal (z-score): -0.183
[2]
  glycan array binding signal (z-score): -0.618
[3]
  glycan array binding signal (z-score): -0.047
[4]
  glycan array binding signal (z-score): -0.081
[5]
  glycan array binding signal (z-score): -0.053
[6]
  glycan array binding signal (z-score): -0.096
[7]
  glycan array binding signal (z-score): -0.034
[8]
  glycan array binding signal (z-score): 0.248
[9]
  glycan array binding signal (z-score): -0.158
[10]
  glycan array binding signal (z-score): 0.106
Neu5Ac(a2-6)GalNAc
  glycan array binding signal (z-score): 0.021
[11]
  glycan array binding signal (z-score): -0.446
Neu5Ac(a2-8)Neu5Ac
  glycan array binding signal (z-score): -0.17
[12]
  glycan array binding signal (z-score): -0.474
[13]
  glycan array binding signal (z-score): 0.105
[14]
  glycan array binding signal (z-score): -0.426
[15]
  glycan array binding signal (z-score): -0.172
[16]
  glycan array binding signal (z-score): -0.386
[17]
  glycan array binding signal (z-score): -0.338
[18]
  glycan array binding signal (z-score): -0.338
Neu5Ac(b2-6)GalNAc
  glycan array binding signal (z-score): -0.632
[19]
  glycan array binding signal (z-score): 0.221
[20]
  glycan array binding signal (z-score): -0.403
[21]
  glycan array binding signal (z-score): -0.163
Neu5Gc(a2-3)Gal(b1-4)Glc
  glycan array binding signal (z-score): 0.245
[22]
  glycan array binding signal (z-score): 0.05
[23]
  glycan array binding signal (z-score): -0.57
[24]
  glycan array binding signal (z-score): -0.39
Neu5Gc(a2-6)GalNAc
  glycan array binding signal (z-score): -0.127
[25]
  glycan array binding signal (z-score): 0.22
